The test in a line: qHTS Assay to Find Inhibitors of Chronic Active B-Cell Receptor Signaling. The note with it: ABC-DLBCL IkBa-CBG/CBR reporter, luminescence ratio (green luciferase fused to IkBa over red control in TMD8 lymphoma cells), 4 h. The gist of the method:
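Doxycycline induced both beetle luciferases in TMD8 lymphoma cells; IKK-driven degradation limits the IkappaBalpha-fused green signal, while red luminescence normalises for cell number and nonspecific effects. Compounds tested up to 46 uM, 4 hrs.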

The mark [1] stands for this setting: measured here: CBR red luminescence, cell number.
Setting [2] is: measured here: IkBa-CBG green luminescence.

This is one part of the list. Shown are side measurements of this screen, not its main read-out; they come without a call. Most of these compounds were active or inconclusive in the main read-out, so they are no random draw. The note in brackets gives the kind of curve behind each potency; many fits are weak.

In the case of `O=C(Cc1cccc(Cl)c1)Nc1ccc(Br)cc1`, under setting [1], the AC50 was 4.47 µM [rising, partial curve, poor fit].

In the case of `COc1ccccc1CCc1nnc(CCC(=O)N(C)Cc2cccc3cnccc23)o1`, under setting [1], the AC50 was 0.891 µM [rising, full curve].

As to `CCC(=O)Nc1cccc(NC(=O)c2ccc(C)cc2Cl)c1`, under setting [1], the AC50 is 14.1 µM [rising, single point].

For `COc1cccc(-c2nc(C(=O)NCCCN3CCOCC3)cc3c2[nH]c2ccccc23)c1`, the AC50 under setting [1] was 20 µM [falling, single point].

As to `COc1cc(NS(=O)(=O)c2ccc(NC(=O)C34CC5CC(CC(C5)C3)C4)cc2)ncn1`, the AC50 under setting [1] is 6.51 µM [rising, single point].

As to `CC1Cc2c([nH]c3ccccc23)C2c3ccccc3CN12` (configuration not stated), the AC50 under setting [1] is 7.08 µM [falling, partial curve].

For the compound `COc1ccc(S(=O)(=O)N2CCOC2CNC(=O)C(=O)NCCc2ccc(S(N)(=O)=O)cc2)cc1` (configuration not stated), the AC50 under setting [1] is 35.5 µM [rising, single point].

Regarding `CCOc1ccccc1-c1cc(C(=O)N/N=C/c2ccc(O)c(OC)c2)c2ccccc2n1`, the AC50 under setting [1] was 29.1 µM [falling, single point].

Take `O=C(N[C@@H](Cc1ccccc1)C(=O)OCc1ccccc1)c1nc[nH]c1C(=O)N1CCc2ccccc2C1`: under setting [1], the AC50 was 22.4 µM [falling, single point].

With `Cc1ccc(CNC(=O)C(=O)NCC(c2ccco2)N2CCOCC2)cc1` (configuration not stated), the AC50 under setting [1] was 0.92 µM [falling, partial curve, poor fit].

Regarding `CC(C)CNC(=O)c1coc(=O)c(Br)c1`, the AC50 under setting [1] is 1.16 µM [rising, full curve, poor fit] and the AC50 under setting [2] is 14.6 µM [falling, partial curve, poor fit].

Turning to `COCc1nc(-c2ccc(-c3ccc(OC)cc3)nc2OC)no1`, the AC50 under setting [1] was 10.3 µM [rising, partial curve].

As to `CCCc1cc(-c2[nH]ncc2-c2ccc(C(=O)OCC)o2)c(O)cc1O`, the AC50 under setting [1] was 10 µM [falling, partial curve, poor fit].

For the compound `CCc1ccc(NCc2cc3c(C)nn(-c4ccccc4)c3[nH]c2=O)cc1`, the AC50 under setting [1] is 20.6 µM [falling, partial curve, poor fit].

`CCOC(=O)c1cccc(COC(=O)c2cccc(-c3nnc(-c4ccccc4)o3)c2)c1`: under setting [1], the AC50 was 16.4 µM [falling, partial curve].

In the case of `O=C(NCCC1=CCCCC1)c1ccc2c(c1)N(Cc1cccc(Cl)c1)C(=O)c1ccccc1S2=O` (configuration not stated), the AC50 under setting [1] was 15.8 µM [rising, single point].

As for `OCCSc1nc2ccccc2n1CCOc1ccccc1`, the AC50 under setting [1] was 2.06 µM [rising, full curve, poor fit].

Turning to `COCCn1c(SCc2c(F)cccc2Cl)nc2c1c(=O)[nH]c(=O)n2C`, the AC50 under setting [1] is 0.291 µM [rising, full curve, poor fit].

On to `O=C(O)c1ccc(N=Cc2nc(-c3ccco3)oc2O)cc1`, for which the AC50 reads like this: under setting [1], 2.51 µM [falling, full curve]; under setting [2], 7.08 µM [rising, partial curve, poor fit].

Regarding `CCCCn1c(=N)n(CC(O)COc2cccc(C)c2)c2ccccc21` (configuration not stated), the half-maximal activity concentration (AC50) under setting [1] was 10 µM [falling, partial curve].

In the case of `CC(C)CC1(C)NC(=O)N(CC(=O)NC(=O)Nc2ccc3c(c2)OCCO3)C1=O` (configuration not stated), the AC50 under setting [1] is 10 µM [falling, partial curve, poor fit].

`O=C(N/N=C(/CC(=O)c1cccs1)C(F)(F)F)c1ccc(O)cc1`: the AC50 under setting [1] was 16.4 µM [falling, partial curve].

`COc1ccccc1-n1cnnc1SC1CCOC1=O` (configuration not stated): the AC50 under setting [1] is 0.794 µM [falling, partial curve, poor fit].

For `Cc1ccc(S(=O)(=O)NC(CC(C)C)C(=O)Nc2nccs2)cc1` (configuration not stated), the AC50 under setting [1] was 25.9 µM [falling, single point].

For `CC1CCc2nc3sc4c(c3c(N)c2C1)CCCC4` (configuration not stated), the AC50 under setting [1] is 0.58 µM [rising, partial curve, poor fit].

As for `CC1CC(=O)c2cnc(NCC3CCCO3)nc2C1` (configuration not stated), under setting [1], the AC50 was 6.51 µM [rising, partial curve, poor fit].

On to `Cc1cccc2cc(COC(=O)c3cccs3)c(=O)[nH]c12`, for which the AC50 under setting [1] is 13 µM [rising, partial curve].

Regarding `CCOc1ccc(C2C3=C(CCCC3=O)Nc3nc(C(F)(F)F)nn32)cc1OC` (configuration not stated), the AC50 under setting [1] is 14.6 µM [falling, partial curve, poor fit].

Turning to `O=C(NNC(=S)Nc1ccc(Br)cc1)c1ccccc1`, the AC50 under setting [1] is 20 µM [falling, single point].

Take `CSCCC(NC(=O)c1ccccc1)C(=O)OCC(=O)c1ccc[nH]1` (configuration not stated): the AC50 under setting [1] is 14.6 µM [rising, partial curve].

With `O=C(O)c1cccc(C(=O)Nc2cccc(NC(=O)C3CCCO3)c2)c1` (configuration not stated), under setting [1], the AC50 was 9.2 µM [falling, partial curve, poor fit].

With `C#CC[N+](C)(C)CC#Cc1ccccc1`, the AC50 under setting [1] was 6.31 µM [falling, single point].

With `CCOC(=O)C1CCCN(Cc2ccc3c(c2)OCO3)C1` (configuration not stated), the AC50 under setting [1] was 10.3 µM [rising, partial curve, poor fit].

As to `COc1cc(C(=O)NCC(=O)OCc2cc(=O)oc3c(C)c(C)ccc23)cc(OC)c1OC`, the AC50 under setting [1] was 3.55 µM [rising, single point].

As for `Cc1cc(N2CCOCC2)ccc1/C=C\[N+](=O)[O-]`, the AC50 runs as follows: under setting [1], 20.6 µM [falling, partial curve, poor fit]; under setting [2], 32.6 µM [rising, partial curve, poor fit].

For `CCN(CC)CCOc1ccc2c(c1)C(=NO)c1cc(OCCN(CC)CC)ccc1-2`, under setting [1], the AC50 is 35.5 µM [falling, single point].

In the case of `Cn1ccnc1SCC(=O)c1c[nH]c2ccccc12`, the AC50 under setting [1] is 7.94 µM [falling, partial curve].

Regarding `COc1ccc(NC(=O)COc2cccc3c2CCN(C)C3=O)c(OC)c1`, the AC50 under setting [1] is 7.08 µM [falling, partial curve].

On to `COc1ccc(C2=NN(C(C#N)c3ccc(OC)c(OC)c3)C(c3ccccc3)C2)cc1` (configuration not stated), for which the AC50 under setting [1] is 6.51 µM [rising, single point].

Regarding `CCS(=O)(=O)n1nc(-c2ccco2)nc1N`, under setting [1], the AC50 is 35.5 µM [rising, partial curve, poor fit].

In the case of `C=CCOc1ccc(C2c3c(oc4ccccc4c3=O)C(=O)N2CCCN2CCOCC2)cc1` (configuration not stated), the AC50 under setting [1] is 11.2 µM [rising, partial curve, poor fit].

With `O=C(CCCN1C(=O)S/C(=C\C=C\c2ccccc2)C1=O)Nc1ccc(O)cc1`, under setting [1], the half-maximal activity concentration (AC50) was 0.447 µM [falling, full curve].

Turning to `COc1ccc(Nc2ncnc3sc(-c4ccccc4)cc23)cc1`, under setting [1], the AC50 is 15.8 µM [falling, single point].

As for `COC(=O)c1sccc1N/N=C/c1ccc(OC)c(OC)c1OC`, the half-maximal activity concentration (AC50) under setting [1] is 0.411 µM [falling, full curve].

As for `COC(=O)c1cccc(Cn2c(Cl)c(/C=N/Nc3ccccc3C)sc2=O)c1`, the AC50 under setting [1] is 25.9 µM [falling, single point].

`NC(=S)N1OC[C@@H]2COc3ccc4ccccc4c3[C@@H]21`: the AC50 under setting [2] is 35.5 µM [rising, partial curve, poor fit].

Regarding `Cn1cc(C(=O)N2CCCC(Nc3ccc(F)cc3)C2)c2ccccc21` (configuration not stated), the half-maximal activity concentration (AC50) under setting [1] is 28.2 µM [falling, single point].

`C(=C1/CCCC2=C1Nc1ncnn1C2c1ccccc1)/c1ccccc1` (configuration not stated): the AC50 under setting [1] is 15.8 µM [falling, partial curve, poor fit].

Turning to `Cc1nc(N)sc1-c1nnc(SCC(=O)Nc2nccs2)n1C`, the AC50 under setting [1] is 7.08 µM [falling, partial curve, poor fit].

For the compound `Cn1cncc1C(=O)c1ccccc1`, the half-maximal activity concentration (AC50) under setting [2] was 35.5 µM [rising, partial curve, poor fit].

Consider `COC(=O)c1sc2cnccc2c1N`, for which the AC50 under setting [1] is 7.31 µM [falling, partial curve, poor fit].

In the case of `COc1ccccc1-n1c(SCC(=O)c2ccc(O)cc2O)nc2cc([N+](=O)[O-])ccc21`, under setting [1], the AC50 was 20.6 µM [falling, single point].

Take `COc1ccc(CNc2ncc(-c3ccccc3)n2C)c2ccccc12`: under setting [1], the AC50 is 20 µM [falling, partial curve, poor fit].

Consider `COC(=O)c1ccc(-c2ccc(F)cc2)nc1C`, for which the concentration at half-maximal activity (AC50) under setting [1] was 13 µM [rising, partial curve, poor fit].

As for `CCCCn1nc(C(=O)Nc2cc(C(F)(F)F)ccc2N2CCOCC2)ccc1=O`, under setting [1], the AC50 is 29.1 µM [falling, single point].

Regarding `CCOc1ccccc1N/C(=C(/C(Cl)=C(Cl)Cl)[N+](=O)[O-])n1cncn1`, the AC50 under setting [1] is 13 µM [falling, partial curve, poor fit].

Consider `CCN(CC)S(=O)(=O)c1ccc(NC=C(C#N)C#N)cc1`, for which the AC50 under setting [1] was 3.16 µM [falling, single point].

For `CC(C)(C)c1ccc(/C=C/C(=O)c2ccc(NC3=NCCCS3)cc2)cc1`, under setting [1], the AC50 was 14.6 µM [falling, partial curve].

Consider `COCC(C)N=Cc1c(O)[nH]c2ccccc12` (configuration not stated), for which the AC50 under setting [1] was 29.1 µM [falling, single point].

Take `CCN(CC(=O)Nc1ccc(NC(C)=O)cc1)C(=O)c1c(-c2c(F)cccc2Cl)noc1C`: under setting [1], the AC50 is 11.2 µM [falling, partial curve, poor fit].

As for `COc1ccc(/C=C/C(=O)NC(=S)NN2CCCCC2c2cccnc2)cc1` (configuration not stated), the AC50 under setting [1] is 3.98 µM [rising, single point].

Turning to `CCCCN(CC)C(=O)CSc1nc2n[nH]c(C)c2c(=N)n1-c1cccc(Cl)c1`, the concentration at half-maximal activity (AC50) under setting [1] is 20 µM [falling, single point].

On to `O=C(O)c1cc(=O)c2ccccc2o1`, for which the AC50 under setting [1] was 35.5 µM [rising, single point].

On to `O=C(Cc1ccc([N+](=O)[O-])cc1)Nc1ccc(Br)cn1`, for which the half-maximal activity concentration (AC50) under setting [1] is 5.62 µM [rising, single point].

The values above are taken from PubChem BioAssay AID493014 (National Center for Advancing Translational Sciences (NCATS), 2011).
